The results in this text go back to article PMC6988918.

B1: Trifunctional enzyme subunit beta, mitochondrial (protein, UniProt Q60587 35-475)
chain: SAPAVQTKSKKTLAKPNLKNIVVVEGVRIPFLLSGTSYKDLMPHDLARAALSGLLYRTNIPKDVVDYIIFGTVIQEVKTSNVAREAALGAGFSDKTPAHTVTMACISSNQAMTTAVGLIASGQCDVVVAGGVELMSDVPIRHSRNMRKMMLDLNKAKTLAQRLSLLTKFRLNFLSPELPAVAEFSTNETMGHSADRLAAAFAVSRMEQDKYALRSHSLAKKAQDEGHLSDIVPFKVPGKDTVSKDNGIRPSSLEQMAKLKPAFIKPYGTVTAANSSFLTDGASAMLIMSEDRALAMGYKPKAYLRDFIYVSQDPKDQLLLGPTYATPKVLEKAGLTMNDIDAFEFHEAFSGQILANFKAMDSDWFAQNYMGRKTKVGAPPLEKFNIWGGSLSLGHPFGATGCRLVMAAANRLRKDGGQYALVAACAAGGQGHAMIVEAYPK
B2: Long-chain specific acyl-CoA dehydrogenase (protein, UniProt P15650 31-430)
chain: GAEARLETPSAKKLTDIGIRRIFSSEHDIFRESVRKFFQEEVIPYHEEWEKAGEVSRELWEKAGKQGLLGINIAEKHGGIGGDLLSTAVTWEEQAYSNCTGPGFSLHSDIVMPYIANYGTKEQIEQFIPQMTAGKCIGAIAMTEPGAGSDLQGVRTNAKRSGSDWILNGSKVFITNGWLSDLVIVVAVTNREARSPAHGISLFLVENGMKGFIKGKKLHKMGMKAQDTAELFFEDVRLPASALLGEENKGFYYLMQELPQERLLIADLAISACEFMFEETRNYVRQRKAFGKTVAHIQTVQHKLAELKTNICVTRAFVDSCLQLHETKRLDSASASMAKYWASELQNTVAYQCVQLHGGWGYMWEYPIAKAYVDARVQPIYGGTNEIMKELIARQIVSDS
B3: ADP/ATP translocase 1 (protein, UniProt Q05962 1-298)
chain: MGDQALSFLKDFLAGGIAAAVSKTAVAPIERVKLLLQVQHASKQISAEKQYKGIIDCVVRIPKEQGFLSFWRGNLANVIRYFPTQALNFAFKDKYKQIFLGGVDRHKQFWRYFAGNLASGGAAGATSLCFVYPLDFARTRLAADVGKGSSQREFNGLGDCLTKIFKSDGLKGLYQGFSVSVQGIIIYRAAYFGVYDTAKGMLPDPKNVHIIVSWMIAQSVTAVAGLVSYPFDTVRRRMMMQSGRKGADIMYTGTVDCWRKIAKDEGRKAFFKGAWSNVLRGMGGAFVLVLYDEIKKYV
B4: Pyruvate dehydrogenase E1 component subunit beta (protein, UniProt P49432 31-359)
chain: VQLTVREAINQGMDEELERDEKVFLLGEEVAQYDGAYKVSRGLWKKYGDKRIIDTPISEMGFAGIAVGAAMAGLRPICEFMTFNFSMQAIDQVINSAAKTYYMSAGLQPVPIVFRGPNGASAGVAAQHSQCFAAWYGHCPGLKVVSPWNSEDAKGLIKSAIRDDNPVVMLENELMYGVAFELPTEAQSKDFLIPIGKAKIERQGTHITVVAHSRPVGHCLEAAAVLSKEGIECEVINLRTIRPMDIEAIEASVMKTNHLVTVEGGWPQFGVGAEICARIMEGPAFNFLDAPAVRVTGADVPMPYAKILEDNSIPQVKDIIFAIKKTLNI
B5: Pyruvate dehydrogenase E1 component subunit alpha (protein, UniProt P26284 30-390)
chain: FANDATFEIKKCDLHRLEEGPPVTTVLTREDGLKYYRMMQTVRRMELKADQLYKQKIIRGFCHLCDGQEACCVGLEAGINPTDHLITAYRAHGFTFNRGHAVRAILAELTGRRGGCAKGKGGSMHMYAKNFYGGNGIVGAQVPLGAGIALACKYNGKDEVCLTLYGDGAANQGQIFEAYNMAALWKLPCIFICENNRYGMGTSVERAAASTDYYKRGDFIPGLRVDGMDILCVREATKFAAAYCRSGKGPILMELQTYRYHGHSMSDPGVSYRTREEIQEVRSKSDPIMLLKDRMVNSNLASVEELKEIDVEVRKEIEDAAQFATADPEPPLEELGYHIYSSDPPFEVRGANQWIKFKSVS
B6: ADP/ATP translocase 2 (protein, UniProt Q09073 1-298)
chain: MTDAAVSFAKDFLAGGVAAAISKTAVAPIERVKLLLQVQHASKQITADKQYKGIIDCVVRIPKEQGVLSFWRGNLANVIRYFPTQALNFAFKDKYKQIFLGGVDKRTQFWRYFAGNLASGGAAGATSLCFVYPLDFARTRLAADVGKAGAEREFKGLGDCLVKIYKSDGIKGLYQGFNVSVQGIIIYRAAYFGIYDTAKGMLPDPKNTHIFISWMIAQSVTAVAGLTSYPFDTVRRRMMMQSGRKGTDIMYTGTLDCWRKIARDEGGKAFFKGAWSNVLRGMGGAFVLVLYDEIKKYT
B7: Transmembrane protein 143 (protein, UniProt D3ZSD8 1-458)
chain: MTVARWLRLWEKGQAMLHVTWGSRVRVWSLVPALLGTPRALSSLENRMGAYRKMWNPKEPCNWAQQYRERFIPFSREQLLRLLIQEFHSSPAERAALEAFSAHVDFCTLSHYHQLLARLQALYDPINPDRETLDQPSLTDPERLSSEKEVLQALKPLLAQANFSPLSEDALAYALVVHHPQDEVQVTINLDQYIYIQFWALGQRVGQMPHKSSVGSKRGFFRKLPPVERRYFKRVVLAARTKGGHLVLKSFKDTPLEGLEQLLPELKVRTPMMQRALLNLMLVVSGVVFFVNVGMVILSDLKMATSLLLLLFAAFMGIRASKVFGQRRSAQALELAHMLYYRSTSNNSELLSALALRAQEEHIKEALLAHSFLGRQPGGPQGTPEETSRWLQSEVESWLLAQSGCDVTFNGPRALAHLQALTPSFGLFPPPELPQLDPLVLGTPEAPQAALGSSYPSP
B8: Solute carrier family 25 member 31 (protein, UniProt D3ZB81 1-293)
chain: MSNNSSKKQSSKKTLFDPVSFAKDLLAGGVAAAVSKTAVAPIERVKLLLQVQASSKQISPEARYKGMIDCLVRIPREQGFLSYWRGNLANVIRYFPTQALNFAFKDKYKQLFMSGVNKEKQFWRWFLANLASGGAAGATSLCVVYPLDFARTRLGVDIGKGPEQRQFTGLGDCIMKIAKSDGLIGLYQGFGVSVQGIIVYRASYFGAYDTVKGLLPKPKETPFLISFIIAQIVTTGSGILSYPFDTVRRRMMMQSGESERQYKGTIDCFLKIYNHEGMAAFFRGAFSNILRVI
B9: Methylcrotonoyl-CoA carboxylase beta chain (protein, UniProt Q5XIT9 23-563)
chain: YHGDAVARLGTQPDSGSSTYQENYEQMKALVNQLHERAQYVRLGGSEKARARHTSRGKLLPRDRIDNLIDPGSPFLEFSQFAGYKLYGEEEVPAGGIITGIGRVSGVECMIVANDATVKGGTYYPVTVKKHVRAQEIALQNRLPCIYLVDSGGANLPRQADTFPDRDHFGRIFYNQAIMSSKNITQIAVVMGSCTAGGAYVPAMADENIIVQRQGTIFLAGPPLVKAATGEEVSAEDLGGADLHCRRSGVTDHYALDDHHALHLTRKVVRSLNYQKKLDVTVEPSEEPLFPADELYGIVGANLKRSFDVREVIARIVDGSRFNEFKALYGDTLVTGFARIFGYPVGIIGNNGVLFSESAKKGAHFVQLCCQRNIPLLFLQNITGFMVGKDYEAEGIAKDGAKMVAAVSCAKVPKITVIIGGSYGAGNYGMCGRAYSPRFLYMWPNARISVMGGEQAATVLATVARDQRAREGKQFSSAEEAALKEPIIKRFEEEGNPYYSSARLWDDGIIDPVDTRLVLGLSISAALNAPIQRTDFGIFRM
B10: Aspartate aminotransferase, mitochondrial (protein, UniProt P00507 30-430)
chain: SSWWTHVEMGPPDPILGVTEAFKRDTNSKKMNLGVGAYRDDNGKPYVLPSVRKAEAQIAGKNLDKEYLPIGGLADFCKASAELALGENSEVLKSGRFVTVQTISGTGALRVGASFLQRFFKFSRDVFLPKPSWGNHTPIFRDAGMQLQGYRYYDPKTCGFDFSGALEDISKIPEQSVLLLHACAHNPTGVDPRPEQWKEMAAVVKKKNLFAFFDMAYQGFASGDGDKDAWAVRHFIEQGINVCLCQSYAKNMGLYGERVGAFTVVCKDAEEAKRVESQLKILIRPLYSNPPLNGARIAATILTSPDLRKQWLQEVKGMADRIISMRTQLVSNLKKEGSSHNWQHITDQIGMFCFTGLKPEQVERLTKEFSVYMTKDGRISVAGVTSGNVGYLAHAIHQVTK

No constants are given. Whether binding was seen depends on the method and setting. In cells and extracts the contact can be indirect. These calls come from enrichment with a bait or labelling near it, and not all partners need be listed.

For this experiment, the target named is Akt (protein kinase B) (rat (endogenous in rat cardiomyocytes)). The experiment in a line: affinity purification with mass spectrometry; Akt precipitated with polyclonal Akt 1/2/3 antibody (sc-8312) and protein A-Sepharose from 1% NP-40 lysates of cardiomyocytes of control and MetS rats stimulated with 100 nM insulin for 10 min; label-free mass spectrometry of the immune complexes.
B1: the binding result is “binds”.

Take B2: the binding result is on record as “binds”.

B3: the binding entry is listed as “binds”.

As for B4, the binding entry is listed as “binds”.

As to B5, the binding result is given as “binds”.

As to B6, the binding result is given as “binds”.

With B7, the binding result is on record as “binds”.

Regarding B8, the binding result was “binds”.

With B9, the binding entry is listed as “binds”.

Take B10: the binding entry is recorded as “binds”.
